# The other results are listed elsewhere or left out.
# Legend:
# Test in all cases: glycan array binding signal (z-score within array); higher = stronger binding
# Conditions in all cases: glycan notation: IUPAC condensed, linker removed
# [1] = biological target: Neu5Ac(a2-6)Gal(b1-4)GlcNAc(b1-6)GalNAc
# Summary of the method: (§1)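 Negative Z-scores can be read as non-binding. The Z-score is calculated within each array and then averaged across arrays of one protein sequence at different concentrations or buffers and across linkers. Arrays, 3228 in all, were curated from the Consortium for Functional Glycomics database and kept only where the protein sequence was available.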
# [2] = biological target: Neu5Ac(a2-6)Gal(b1-4)GlcNAc(b1-6)[Gal(b1-3)GlcNAc(b1-3)]Gal(b1-4)Glc
# Summary of the method: as §1
# [3] = biological target: Neu5Ac(a2-6)Gal(b1-4)GlcNAc(b1-6)[Gal(b1-3)]GalNAc
# Summary of the method: as §1
# [4] = biological target: Neu5Ac(a2-6)Gal(b1-4)GlcNAc6S
# Summary of the method: as §1
# Neu5Ac(a2-6)GalNAc = biological target: Neu5Ac(a2-6)GalNAc
# Summary of the method: as §1
# [5] = biological target: Neu5Ac(a2-6)GalNAc(b1-4)GlcNAc
# Summary of the method: as §1
# [6] = biological target: Neu5Ac(a2-6)GalNAc(b1-4)GlcNAc6S
# Summary of the method: as §1
# [7] = biological target: Neu5Ac(a2-6)GlcNAc(b1-4)GlcNAc
# Summary of the method: as §1
# [8] = biological target: Neu5Ac(a2-6)GlcNAc(b1-4)GlcNAc(b1-4)GlcNAc
# Summary of the method: as §1
# Neu5Ac(a2-8)Neu5Ac = biological target: Neu5Ac(a2-8)Neu5Ac
# Summary of the method: as §1
# [9] = biological target: Neu5Ac(a2-8)Neu5Ac(a2-3)Gal(b1-3)GalNAc(b1-4)[Neu5Ac(a2-3)]Gal(b1-4)Glc
# Summary of the method: as §1
# [10] = biological target: Neu5Ac(a2-8)Neu5Ac(a2-3)Gal(b1-3)GalNAc(b1-4)[Neu5Ac(a2-8)Neu5Ac(a2-3)]Gal(b1-4)Glc
# Summary of the method: as §1
# [11] = biological target: Neu5Ac(a2-8)Neu5Ac(a2-3)Gal(b1-4)Glc
# Summary of the method: as §1
# [12] = biological target: Neu5Ac(a2-8)Neu5Ac(a2-3)Gal(b1-4)GlcNAc
# Summary of the method: as §1
# [13] = biological target: Neu5Ac(a2-8)Neu5Ac(a2-3)[Gal(b1-3)GalNAc(b1-4)]Gal(b1-4)Glc
# Summary of the method: as §1
# [14] = biological target: Neu5Ac(a2-8)Neu5Ac(a2-3)[GalNAc(b1-4)]Gal(b1-4)Glc
# Summary of the method: as §1
# [15] = biological target: Neu5Ac(a2-8)Neu5Ac(a2-8)Neu5Ac
# Summary of the method: as §1
# [16] = biological target: Neu5Ac(a2-8)Neu5Ac(a2-8)Neu5Ac(a2-3)Gal(b1-4)Glc
# Summary of the method: as §1
# [17] = biological target: Neu5Ac(a2-8)Neu5Ac(a2-8)Neu5Ac(a2-3)[Gal(b1-3)GalNAc(b1-4)]Gal(b1-4)Glc
# Summary of the method: as §1
# [18] = biological target: Neu5Ac(a2-8)Neu5Ac(a2-8)Neu5Ac(a2-3)[GalNAc(b1-4)]Gal(b1-4)Glc
# Summary of the method: as §1
# [19] = biological target: Neu5Ac(a2-8)Neu5Ac(a2-8)Neu5Ac(a2-8)Neu5Ac(a2-3)[GalNAc(b1-4)]Gal(b1-4)Glc
# Summary of the method: as §1
# [20] = biological target: Neu5Ac(a2-8)Neu5Gc(a2-3)Gal(b1-4)GlcNAc
# Summary of the method: as §1
# [21] = biological target: Neu5Ac(b2-6)Gal(b1-4)GlcNAc
# Summary of the method: as §1
# Neu5Ac(b2-6)GalNAc = biological target: Neu5Ac(b2-6)GalNAc
# Summary of the method: as §1
# [22] = biological target: Neu5Ac9Ac(a2-3)Gal(b1-3)GlcNAc
# Summary of the method: as §1
# [23] = biological target: Neu5Ac9Ac(a2-3)Gal(b1-4)GlcNAc
# Summary of the method: as §1
# [24] = biological target: Neu5Ac9Ac(a2-6)Gal(b1-4)GlcNAc
# Summary of the method: as §1
# [25] = biological target: Neu5Gc(a2-3)Gal(b1-3)GlcNAc
# Summary of the method: as §1
# [26] = biological target: Neu5Gc(a2-3)Gal(b1-3)[Fuc(a1-4)]GlcNAc
# Summary of the method: as §1
# Neu5Gc(a2-3)Gal(b1-4)Glc = biological target: Neu5Gc(a2-3)Gal(b1-4)Glc
# Summary of the method: as §1
# [27] = biological target: Neu5Gc(a2-3)Gal(b1-4)GlcNAc
# Summary of the method: as §1
# [28] = biological target: Neu5Gc(a2-3)Gal(b1-4)GlcNAc(b1-3)Gal(b1-4)GlcNAc(b1-2)Man(a1-3)[Neu5Gc(a2-3)Gal(b1-4)GlcNAc(b1-3)Gal(b1-4)GlcNAc(b1-2)Man(a1-6)]Man(b1-4)GlcNAc(b1-4)GlcNAc
# Summary of the method: as §1
# [29] = biological target: Neu5Gc(a2-3)Gal(b1-4)[Fuc(a1-3)]GlcNAc
# Summary of the method: as §1
# [30] = biological target: Neu5Gc(a2-6)Gal(b1-4)GlcNAc
# Summary of the method: as §1
# Neu5Gc(a2-6)GalNAc = biological target: Neu5Gc(a2-6)GalNAc
# Summary of the method: as §1
# [31] = biological target: Neu5Gc(a2-8)Neu5Ac(a2-3)Gal(b1-4)GlcNAc
# Summary of the method: as §1
# [32] = biological target: Neu5Gc(a2-8)Neu5Gc(a2-3)Gal(b1-4)GlcNAc
# Summary of the method: as §1
# [33] = biological target: Neu5Gc(a2-8)Neu5Gc(a2-3)Gal(b1-4)GlcNAc(b1-3)Gal(b1-4)GlcNAc
# Summary of the method: as §1
binder,measurement,setting,value
PX14343C-bfa-541-26-541 (Bacteroides fragilis) (protein) KAPLDEIADDSFWSDETLVKYYVNDLYSEISVDGLQLQENRSDNSVSAQRDKYRASWFKFNYDMVSASDPQDDDVWEDYYVKVRKCNRFFERIGTSTIEESEKSRLTGEVHFLRAMFYFEMVKRYGGVILLDKVLTMEDNWEIPRSSEKECYDFILEDLKKATEMLPASYGSREKGRATKGAAYALKSRVELYDKRYEDVIKSCAEVYKLGYELVDGTTPEKYRSIWWTTNKDNKEIIFDVQYKSPDVYNNMMVCNMVTYINDKYGDRGWGGLGPTQELIDAFEMADGTPATQYSQAPADQVFDINTCGIYEGREPRFYANIVFHGSQIFFNADKGAVTVDRYLMDTPDKGDGSLTGYNVWKWIDYDNYNYPYAGAGSPDFSTNWIILRYAEIYLNDAEARLETGDVEGARKAVNMIRQRVGLPDLTESDPEKLRELIRKERRIEFAFEEQRFYDVRRWKIGPETQTTLHGVRFVSPTEFKVTKTDIRTWNDRLYLTPVPHDEIVRSSVLKQNLGY,glycan array binding signal (z-score),[1],0.168
same,glycan array binding signal (z-score),[2],5.89
same,glycan array binding signal (z-score),[3],-0.647
same,glycan array binding signal (z-score),[4],-0.293
same,glycan array binding signal (z-score),Neu5Ac(a2-6)GalNAc,-0.484
same,glycan array binding signal (z-score),[5],-0.84
same,glycan array binding signal (z-score),[6],-0.494
same,glycan array binding signal (z-score),[7],0.294
same,glycan array binding signal (z-score),[8],0.025
same,glycan array binding signal (z-score),Neu5Ac(a2-8)Neu5Ac,-0.451
same,glycan array binding signal (z-score),[9],-0.491
same,glycan array binding signal (z-score),[10],-0.267
same,glycan array binding signal (z-score),[11],-1.29
same,glycan array binding signal (z-score),[12],-1.16
same,glycan array binding signal (z-score),[13],-0.215
same,glycan array binding signal (z-score),[14],-0.488
same,glycan array binding signal (z-score),[15],-0.546
same,glycan array binding signal (z-score),[16],-0.275
same,glycan array binding signal (z-score),[17],0.045
same,glycan array binding signal (z-score),[18],-1.05
same,glycan array binding signal (z-score),[19],1.9
same,glycan array binding signal (z-score),[20],-0.49
same,glycan array binding signal (z-score),[21],-0.351
same,glycan array binding signal (z-score),Neu5Ac(b2-6)GalNAc,-0.477
same,glycan array binding signal (z-score),[22],-0.209
same,glycan array binding signal (z-score),[23],-0.332
same,glycan array binding signal (z-score),[24],0.204
same,glycan array binding signal (z-score),[25],0.179
same,glycan array binding signal (z-score),[26],0.036
same,glycan array binding signal (z-score),Neu5Gc(a2-3)Gal(b1-4)Glc,-0.166
same,glycan array binding signal (z-score),[27],0.294
same,glycan array binding signal (z-score),[28],-0.793
same,glycan array binding signal (z-score),[29],-0.364
same,glycan array binding signal (z-score),[30],-0.535
same,glycan array binding signal (z-score),Neu5Gc(a2-6)GalNAc,-0.165
same,glycan array binding signal (z-score),[31],0.105
same,glycan array binding signal (z-score),[32],-0.342
same,glycan array binding signal (z-score),[33],-0.366

# For reference, part of the list above.
binder,measurement,setting,value
PX14343C-bfa-541-26-541 (Bacteroides fragilis) (protein) KAPLDEIADDSFWSDETLVKYYVNDLYSEISVDGLQLQENRSDNSVSAQRDKYRASWFKFNYDMVSASDPQDDDVWEDYYVKVRKCNRFFERIGTSTIEESEKSRLTGEVHFLRAMFYFEMVKRYGGVILLDKVLTMEDNWEIPRSSEKECYDFILEDLKKATEMLPASYGSREKGRATKGAAYALKSRVELYDKRYEDVIKSCAEVYKLGYELVDGTTPEKYRSIWWTTNKDNKEIIFDVQYKSPDVYNNMMVCNMVTYINDKYGDRGWGGLGPTQELIDAFEMADGTPATQYSQAPADQVFDINTCGIYEGREPRFYANIVFHGSQIFFNADKGAVTVDRYLMDTPDKGDGSLTGYNVWKWIDYDNYNYPYAGAGSPDFSTNWIILRYAEIYLNDAEARLETGDVEGARKAVNMIRQRVGLPDLTESDPEKLRELIRKERRIEFAFEEQRFYDVRRWKIGPETQTTLHGVRFVSPTEFKVTKTDIRTWNDRLYLTPVPHDEIVRSSVLKQNLGY,glycan array binding signal (z-score),[8],0.025
same,glycan array binding signal (z-score),Neu5Ac(a2-8)Neu5Ac,-0.451
same,glycan array binding signal (z-score),[9],-0.491
same,glycan array binding signal (z-score),[10],-0.267
same,glycan array binding signal (z-score),[11],-1.29
same,glycan array binding signal (z-score),[12],-1.16
same,glycan array binding signal (z-score),[13],-0.215
same,glycan array binding signal (z-score),[14],-0.488
